# Results are given in words; binding and its absence hold for the method and conditions named. In cells and extracts the contact can be indirect. These calls come from enrichment with a bait or labelling near it, and not all partners need be listed.
# By UniProt entry, the sequences of proteins in these tests, tags left out. Where a name states a change or a piece, a line headed by the entry shows the natural chain unless it says otherwise.
# UniProt Q05639: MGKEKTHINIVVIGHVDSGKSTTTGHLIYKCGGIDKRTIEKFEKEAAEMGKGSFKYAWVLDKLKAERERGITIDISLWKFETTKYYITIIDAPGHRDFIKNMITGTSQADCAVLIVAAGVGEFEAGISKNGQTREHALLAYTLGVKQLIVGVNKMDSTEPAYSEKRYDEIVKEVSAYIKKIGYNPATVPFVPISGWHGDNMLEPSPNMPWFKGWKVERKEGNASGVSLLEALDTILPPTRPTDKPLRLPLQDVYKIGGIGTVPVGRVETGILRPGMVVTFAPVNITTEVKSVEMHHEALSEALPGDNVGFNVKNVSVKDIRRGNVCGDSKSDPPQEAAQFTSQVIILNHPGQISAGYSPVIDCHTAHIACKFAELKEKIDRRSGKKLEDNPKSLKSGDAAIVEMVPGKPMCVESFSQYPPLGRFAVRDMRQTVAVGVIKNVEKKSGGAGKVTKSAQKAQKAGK
# UniProt P07339: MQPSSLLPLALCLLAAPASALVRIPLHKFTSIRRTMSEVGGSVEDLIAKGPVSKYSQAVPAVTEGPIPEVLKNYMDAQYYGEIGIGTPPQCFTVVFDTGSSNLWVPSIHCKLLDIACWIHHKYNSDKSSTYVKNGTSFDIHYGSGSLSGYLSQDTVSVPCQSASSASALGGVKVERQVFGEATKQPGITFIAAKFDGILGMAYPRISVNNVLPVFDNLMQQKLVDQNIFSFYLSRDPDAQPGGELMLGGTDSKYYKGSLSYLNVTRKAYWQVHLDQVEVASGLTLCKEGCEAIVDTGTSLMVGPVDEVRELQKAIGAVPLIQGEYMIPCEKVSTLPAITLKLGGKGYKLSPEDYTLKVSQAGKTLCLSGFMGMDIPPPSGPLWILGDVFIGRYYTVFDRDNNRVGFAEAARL
# UniProt P19525: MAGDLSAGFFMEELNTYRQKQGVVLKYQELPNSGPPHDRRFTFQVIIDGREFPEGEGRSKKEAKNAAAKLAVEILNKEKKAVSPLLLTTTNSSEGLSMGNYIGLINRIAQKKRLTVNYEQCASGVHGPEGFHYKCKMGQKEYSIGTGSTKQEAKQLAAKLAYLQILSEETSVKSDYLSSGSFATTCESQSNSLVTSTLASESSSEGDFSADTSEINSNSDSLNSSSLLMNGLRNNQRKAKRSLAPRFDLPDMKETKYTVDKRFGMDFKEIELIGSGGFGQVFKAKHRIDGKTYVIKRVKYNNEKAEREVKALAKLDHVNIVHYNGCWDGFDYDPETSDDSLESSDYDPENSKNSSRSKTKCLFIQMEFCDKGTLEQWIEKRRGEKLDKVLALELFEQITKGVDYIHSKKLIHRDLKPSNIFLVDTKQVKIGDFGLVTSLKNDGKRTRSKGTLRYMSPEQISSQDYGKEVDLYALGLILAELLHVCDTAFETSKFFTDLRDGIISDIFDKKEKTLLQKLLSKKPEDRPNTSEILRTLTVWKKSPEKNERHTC
# B1: 3-Hydroxyacyl-CoA dehydrogenase type-2 (enzyme, UniProt Q99714 1-261)
# chain: MAAACRSVKGLVAVITGGASGLGLATAERLVGQGASAVLLDLPNSGGEAQAKKLGNNCVFAPADVTSEKDVQTALALAKGKFGRVDVAVNCAGIAVASKTYNLKKGQTHTLEDFQRVLDVNLMGTFNVIRLVAGEMGQNEPDQGGQRGVIINTASVAAFEGQVGQAAYSASKGGIVGMTLPIARDLAPIGIRVMTIAPGLFGTPLLTSLPEKVCNFLASQVPFPSRLGDPAEYAHLVQAIIENPFLNGEVIRLDGAIRMQP
# B2: Zinc-finger protein 622 (protein, UniProt Q969S3 1-477)
# chain: MATYTCITCRVAFRDADMQRAHYKTDWHRYNLRRKVASMAPVTAEGFQERVRAQRAVAEEESKGSATYCTVCSKKFASFNAYENHLKSRRHVELEKKAVQAVNRKVEMMNEKNLEKGLGVDSVDKDAMNAAIQQAIKAQPSMSPKKAPPAPAKEARNVVAVGTGGRGTHDRDPSEKPPRLQWFEQQAKKLAKQQEEDSEEEEEDLDGDDWEDIDSDEELECEDTEAMDDVVEQDAEEEEAEEGPPLGAIPITDCLFCSHHSSSLMKNVAHMTKDHSFFIPDIEYLSDIKGLIKYLGEKVGVGKICLWCNEKGKSFYSTEAVQAHMNDKSHCKLFTDGDAALEFADFYDFRSSYPDHKEGEDPNKAEELPSEKNLEYDDETMELILPSGARVGHRSLMRYYKQRFGLSRAVAVAKNRKAVGRVLQQYRALGWTGSTGAALMRERDMQYVQRMKSKWMLKTGMKNNATKQMHFRVQVRF
# B3: Peroxisomal multifunctional enzyme type 2 (enzyme, UniProt P51659 1-736)
# chain: MGSPLRFDGRVVLVTGAGAGLGRAYALAFAERGALVVVNDLGGDFKGVGKGSLAADKVVEEIRRRGGKAVANYDSVEEGEKVVKTALDAFGRIDVVVNNAGILRDRSFARISDEDWDIIHRVHLRGSFQVTRAAWEHMKKQKYGRIIMTSSASGIYGNFGQANYSAAKLGLLGLANSLAIEGRKSNIHCNTIAPNAGSRMTQTVMPEDLVEALKPEYVAPLVLWLCHESCEENGGLFEVGAGWIGKLRWERTLGAIVRQKNHPMTPEAVKANWKKICDFENASKPQSIQESTGSIIEVLSKIDSEGGVSANHTSRATSTATSGFAGAIGQKLPPFSYAYTELEAIMYALGVGASIKDPKDLKFIYEGSSDFSCLPTFGVIIGQKSMMGGGLAEIPGLSINFAKVLHGEQYLELYKPLPRAGKLKCEAVVADVLDKGSGVVIIMDVYSYSEKELICHNQFSLFLVGSGGFGGKRTSDKVKVAVAIPNRPPDAVLTDTTSLNQAALYRLSGDWNPLHIDPNFASLAGFDKPILHGLCTFGFSARRVLQQFADNDVSRFKAIKARFAKPVYPGQTLQTEMWKEGNRIHFQTKVQETGDIVISNAYVDLAPTSGTSAKTPSEGGKLQSTFVFEEIGRRLKDIGPEVVKKVNAVFEWHITKGGNIGAKWTIDLKSGSGKVYQGPAKGAADTTIILSDEDFMEVVLGKLDPQKAFFSGRLKARGNIMLSQKLQMILKDYAKL
# Target: eEF1A2-tGFP (human) (UniProt Q05639)
# Assay: affinity purification with mass spectrometry; lysate of HeLa cells stably transfected with eEF1A2-tGFP immunoprecipitated with anti-tGFP antibody; wt HeLa cells processed identically as control; mass spectrometry-based proteomics, hits filtered
row,Molecule,binding
1,Cathepsin D (from UniProt P07339) (enzyme),binds
2,"Interferon-induced, double-stranded RNA-activated protein kinase (PKR) (from UniProt P19525 1-551) (enzyme)",binds
3,B1,binds
4,B2,binds
5,B3,binds

# Source: publication PMC6265344
